In patent US12174198B2, “Methods of characterizing condensate-associated characteristics of compounds and uses thereof” (Dewpoint Therapeutics, Inc., priority 2019, dated 2024):
Some entries share one result that the patent states for a list of compounds.

Test system: FUS-SNAP condensates versus PGL-3 condensates
Assay: Condensate preference: ratio of FUS-SNAP I-in:I-out to PGL-3 I-in:I-out
Assay type: physicochemical
Details: average FUS-SNAP I-in:I-out divided by average PGL-3 I-in:I-out; listed as #18
Method: The ratios of the average intensity measured in the target condensates and outside of the target condensates were calculated by dividing I-in by I-out, although dividing I-out by I-in could also have been used. The I-in:I-out ratios determined from the two different days of experiments were then averaged. The average I-in:I-out ratios for FUS-SNAP condensates are shown in FIG. 3 and the average I-in:I-out ratios for PGL-3 condensates are shown in FIG. 4. The standard deviation between the two experiments is represented by the error bars in FIG. 3 and FIG. 4.

## N#CC1=c2cc3c4c(c2Oc2c1cc1c5c2CCCN5CCC1)CCC[N+]=4CCC3 [Dye 18, Rhodamine 800]
  Ratio of FUS-SNAP:PGL-3: ≥ 3
